Screening data

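Uptake of anthrax lethal toxin into cultured cells, read by FRET (460/530 nm ratio) and reported from the 460 nm channel; the cell line is not named here. Each compound was tested as a concentration series from about 0.0005 to 40 µM. The number is the fitted AC50 of the 460 nm signal alone; lower values mean a more potent effect. A falling signal goes with compounds filed as inhibitors or cytotoxic, a rising one with activators or fluorescent compounds (inferred from the filed classes).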

Values are in nM. Common to all entries: measured here: 460 nm channel. Part of the compounds only, not a random draw; the main read-out is not listed here. A potency from a partial, single-point or poor curve is only a rough figure. The first word of each remark tells which way the curve ran; it can be opposite to the aim of the assay.

structure	AC50 (nM)	curve
COc1ccc(CNC(=O)C2CCCN2S(=O)(=O)c2ccc(S(=O)(=O)N(C)C)cc2)cc1 (configuration not stated)	6310	rising, partial curve
CN(C)CCCN1c2ccccc2CCc2ccc(Cl)cc21	25118	falling, single point
Cc1cc(C(=O)O)ccc1[C@H](N)C(=O)O	31622	falling, single point
Cc1ccccc1Cn1nc(C)c(NC(=O)c2noc3c2CCc2ccccc2-3)c1C	7943	falling, partial curve
O=C(Cn1c(=O)oc2cc(S(=O)(=O)N3CCCC3)ccc21)NC1CCCc2ccccc21 (configuration not stated)	25118	falling, single point
CN(Cc1ccco1)c1nc(-c2cccc(C#N)c2)nc2ccccc12	10000	falling, partial curve
COCCN(C(=O)CCC(=O)Nc1ccccn1)C(C(=O)NC1CCCC1)c1ccc(OC)cc1 (configuration not stated)	5012	rising, partial curve
COc1ccc(CNC(=O)/C=C\c2ccc3[nH]cc(CCN(C)C)c3c2)cc1	31622	falling, single point
C=C(CC)C(=O)c1ccc(OCC(=O)O)c(Cl)c1Cl	6310	falling, partial curve
CC1CCCCC1NC(=O)Cn1nc(-c2ccccc2)ccc1=O (configuration not stated)	125.9	falling, full curve
COc1ccc(C2CC(c3ccc(F)cc3)Nc3nc(N)nn32)cc1 (configuration not stated)	10000	rising, partial curve
COc1ccc2c(CSc3nc4nc(C)cc(C)n4n3)cc(=O)oc2c1	3981	rising, partial curve
Cc1nn2c(N3CCN(C(=O)c4ccco4)CC3)cc(C(C)(C)C)nc2c1-c1ccccc1	25.12	falling, full curve, poor fit
Cc1ccc2occ(C(c3nnnn3C3CCCC3)N3CCN(C(=O)c4ccco4)CC3)c(=O)c2c1 (configuration not stated)	31622	rising, single point
Cn1c(=O)c(-c2ccc(F)c(F)c2)nc2cncnc21	31622	rising, single point
CCCc1[nH]nc2c1C1(CCOC1C)C(C#N)=C(N)O2 (configuration not stated)	100	falling, partial curve
COc1ccc(OCCOC(=O)Nc2ccccc2)cc1	25118	falling, single point
Cc1cc(Cl)cc(C)c1OCC(=O)O	5012	rising, single point
C/C(=N/NS(=O)(=O)c1ccc(C)cc1)P(=O)(O)O	1000	falling, single point
CCOc1ccc(C(=O)N2CCC(C(=O)c3ccc4c(c3)OCCO4)CC2)cc1	15.85	falling, full curve, poor fit
CC(C)C(=O)NC(c1ccco1)c1ccc2cccnc2c1O (configuration not stated)	3162	falling, single point
Cc1cc2nc(-c3ccc(SCC(=O)N4CCN(C(=O)c5ccco5)CC4)nc3)[nH]c2cc1C	6310	falling, partial curve
Cc1ccc2c(c1)C(=O)[C@]1(O)CCN(c3ccccc3)C1=N2	25118	rising, single point
CCCCn1c(SCC(=O)c2cc(OC)ccc2OC)nc2cc(S(N)(=O)=O)ccc21	3981	rising, single point
Cc1nn(C)cc1NC(=O)CCSc1nc(-c2ccco2)cc(C(F)(F)F)n1	7943	rising, partial curve
Cc1cc(N2CCC(N(C)C3CCCC3)CC2)nc2cc(O)ccc12	2512	falling, full curve
Cc1ccc2nc3c(cc(C#N)c(=N)n3CC3CCCO3)c(=O)n2c1 (configuration not stated)	12589	rising, single point
O=c1[nH]c(SCc2ccccc2Cl)nc2c1cnn2-c1ccccc1	3162	falling, single point
COc1ccc(N2CCN(Cc3nc4c(c(=O)n(C)c(=O)n4C)n3CCc3ccccc3)CC2)cc1	7943	falling, partial curve
O=S(=O)(c1cccc(-c2nnc(-c3cccnc3)o2)c1)N1CCCCC1	3162	rising, single point
Cc1ccc(CS(=O)(=O)CCC(=O)NCc2ccc3c(c2)OCO3)cc1	5012	rising, single point
O/N=C1/CCCCC1c1ccccn1 (configuration not stated)	12589	rising, single point
COc1ccc(OCCNC(=O)c2ccccc2OCC(=O)N2CCCCC2)cc1	31622	rising, single point
COc1ccc(/C=N/n2cc(-c3ccccc3)nc2N)cc1	10000	falling, partial curve
CSc1cccc(NC(=O)c2nnn(Cc3ccccc3)c2N)c1	3981	rising, single point
CC(=O)O[C@H]1C[C@H]2CC[C@@H]3[C@@H](CC[C@]4(C)[C@H](OC(C)=O)[C@H]([N+]5(C)CCCCC5)C[C@@H]34)[C@]2(C)C[C@H]1[N+]1(C)CCCCC1	316.2	rising, partial curve, poor fit
CCCSc1nnc(Sc2nnnn2-c2ccccc2)s1	10000	falling, partial curve
N=c1c(C(=O)NCc2ccc(F)cc2)cc2c(=O)n3ccccc3nc2n1CCCN1CCOCC1	1000	rising, full curve
CC1(C)N=C(N)N=C(N)N1c1cccc(C(=O)Nc2ccc(S(=O)(=O)F)cc2)c1	794.3	falling, partial curve
O=C(c1cccc(Cl)c1)N(Cc1cccs1)C1CCS(=O)(=O)C1 (configuration not stated)	10000	rising, single point
Fc1ccc(CNc2ccc(CNc3ncn[nH]3)cc2)cc1	5012	falling, single point
Cc1cnc(CNc2ncnc3ccc(-c4c(C)noc4C)cc23)cn1	12589	falling, single point

2 of the entries, repeated:

structure,AC50 (nM),curve
CN(C)CCCN1c2ccccc2CCc2ccc(Cl)cc21,25118,"falling, single point"
Cc1cc(N2CCC(N(C)C3CCCC3)CC2)nc2cc(O)ccc12,2512,"falling, full curve"

Source: PubChem BioAssay AID912 (NCATS, 2007).